Drawing on publication PMC5342411, this text covers binding for one molecule.

By UniProt entry, the sequences of proteins in these tests, tags left out.
UniProt P63104: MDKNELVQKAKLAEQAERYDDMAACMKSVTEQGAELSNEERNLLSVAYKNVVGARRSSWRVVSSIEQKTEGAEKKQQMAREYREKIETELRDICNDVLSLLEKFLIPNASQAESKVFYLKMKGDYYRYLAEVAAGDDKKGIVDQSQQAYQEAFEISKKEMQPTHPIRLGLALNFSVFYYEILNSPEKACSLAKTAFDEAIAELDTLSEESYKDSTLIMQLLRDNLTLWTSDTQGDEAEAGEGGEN

These are yes or no findings as the source states them, for the method shown. In cells and extracts the contact can be indirect. Some entries that bind do so weakly or less than the wild type.

The target in the experiment is 14-3-3ζ (human (endogenous in CCA tissues, TFK-1 and HuCCT1)) (UniProt P63104). Briefly: co-IP; endogenous proteins in RIPA lysates of CCA tissues and TFK-1 and HuCCT1 cells; 1 mg total protein pre-cleared with rabbit IgG and protein A+G agarose; precipitated with anti-aPKC-ι or anti-14-3-3ζ antibody overnight at 4°C; washed 5 times with RIPA lysis buffer; Western blot with the other antibody; rabbit IgG as negative control.

B1: atypical protein kinase C-ι (protein, UniProt P41743 1-596)
chain: MPTQRDSSTMSHTVAGGGSGDHSHQVRVKAYYRGDIMITHFEPSISFEGLCNEVRDMCSFDNEQLFTMKWIDEEGDPCTVSSQLELEEAFRLYELNKDSELLIHVFPCVPERPGMPCPGEDKSIYRRGARRWRKLYCANGHTFQAKRFNRRAHCAICTDRIWGLGRQGYKCINCKLLVHKKCHKLVTIECGRHSLPQEPVMPMDQSSMHSDHAQTVIPYNPSSHESLDQVGEEKEAMNTRESGKASSSLGLQDFDLLRVIGRGSYAKVLLVRLKKTDRIYAMKVVKKELVNDDEDIDWVQTEKHVFEQASNHPFLVGLHSCFQTESRLFFVIEYVNGGDLMFHMQRQRKLPEEHARFYSAEISLALNYLHERGIIYRDLKLDNVLLDSEGHIKLTDYGMCKEGLRPGDTTSTFCGTPNYIAPEILRGEDYGFSVDWWALGVLMFEMMAGRSPFDIVGSSDNPDQNTEDYLFQVILEKQIRIPRSLSVKAASVLKSFLNKDPKERLGCHPQTGFADIQGHPFFRNVDWDMMEQKQVVPPFKPNISGEFGLDNFDSQFTNEPVQLTPDDDDIVRKIDQSEFEGFEYINPLLMSAEECV
On to B1, for which the binding result was “binds”.
